From publication PMC12385072
No constants are given. Whether binding was seen depends on the method and setting. In cells and extracts the contact can be indirect. A yes stands for co-enrichment or nearness to the bait. Other partners may have been found. Each block holds one molecule with its values, some of them ahead of it.

Protein sequences, listed by entry. Tags and fused reporters are not part of them. Residues count along the entry.
UniProt Q8CFN2: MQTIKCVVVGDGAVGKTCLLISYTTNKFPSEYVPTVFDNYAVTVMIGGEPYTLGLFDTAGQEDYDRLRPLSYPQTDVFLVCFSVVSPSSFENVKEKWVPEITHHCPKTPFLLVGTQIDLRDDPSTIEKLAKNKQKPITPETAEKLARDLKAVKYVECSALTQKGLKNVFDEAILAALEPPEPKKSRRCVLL
UniProt P62813, residues 28-455: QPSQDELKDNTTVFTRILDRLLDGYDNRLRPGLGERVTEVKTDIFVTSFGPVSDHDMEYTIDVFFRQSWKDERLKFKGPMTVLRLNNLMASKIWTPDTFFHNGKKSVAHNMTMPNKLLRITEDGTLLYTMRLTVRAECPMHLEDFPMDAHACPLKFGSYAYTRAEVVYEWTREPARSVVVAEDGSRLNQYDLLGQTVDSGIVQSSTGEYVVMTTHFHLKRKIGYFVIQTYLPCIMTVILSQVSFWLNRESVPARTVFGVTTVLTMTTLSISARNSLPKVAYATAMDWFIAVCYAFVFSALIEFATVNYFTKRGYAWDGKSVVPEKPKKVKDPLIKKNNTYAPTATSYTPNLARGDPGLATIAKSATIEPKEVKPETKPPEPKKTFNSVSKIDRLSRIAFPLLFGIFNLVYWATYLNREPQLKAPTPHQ
UniProt P63138, residues 26-474: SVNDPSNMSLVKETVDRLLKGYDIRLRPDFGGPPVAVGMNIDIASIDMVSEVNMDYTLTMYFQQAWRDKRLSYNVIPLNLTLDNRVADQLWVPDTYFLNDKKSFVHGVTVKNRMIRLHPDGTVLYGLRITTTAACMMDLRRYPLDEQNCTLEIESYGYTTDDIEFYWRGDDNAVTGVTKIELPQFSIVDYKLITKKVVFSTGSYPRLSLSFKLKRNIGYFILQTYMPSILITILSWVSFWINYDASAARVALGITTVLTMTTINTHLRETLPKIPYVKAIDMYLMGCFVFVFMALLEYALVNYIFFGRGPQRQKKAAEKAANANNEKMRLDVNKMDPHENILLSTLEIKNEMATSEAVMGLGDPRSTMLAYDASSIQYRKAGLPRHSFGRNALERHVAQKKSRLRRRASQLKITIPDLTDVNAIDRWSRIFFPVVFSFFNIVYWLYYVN
UniProt P63079, residues 26-473: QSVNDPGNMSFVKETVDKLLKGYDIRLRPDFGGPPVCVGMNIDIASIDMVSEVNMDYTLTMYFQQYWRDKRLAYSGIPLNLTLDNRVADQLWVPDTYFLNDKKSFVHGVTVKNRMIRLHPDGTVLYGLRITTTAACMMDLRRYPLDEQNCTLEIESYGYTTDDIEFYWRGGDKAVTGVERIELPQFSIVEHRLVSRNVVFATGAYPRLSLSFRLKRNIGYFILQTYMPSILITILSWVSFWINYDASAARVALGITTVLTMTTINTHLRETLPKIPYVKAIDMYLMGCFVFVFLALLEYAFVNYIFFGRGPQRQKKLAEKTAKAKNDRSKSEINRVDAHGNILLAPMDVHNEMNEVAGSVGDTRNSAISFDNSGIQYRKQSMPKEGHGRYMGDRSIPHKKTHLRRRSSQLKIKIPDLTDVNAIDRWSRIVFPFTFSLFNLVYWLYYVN

Biological target: T1, RIPSYR peptide (TARPγ2-derived, 225-RIPSYR-230)
T1 sequence (peptide): RIPSYR
Experiment: affinity purification with mass spectrometry; RIPSYR covalently coupled (EDC/NHS) to carboxy magnetic beads, uncoupled (blank) beads as control; rat hippocampal synaptosome lysate (1% Triton X-100, 50 mM Tris Cl, 300 mM NaCl, pH 7.4) added, 2 h at 4 °C; eluted with 2% SDS; TMT-labelled LC-MS/MS, abundance ratio of RIPSYR-coupled bead to blank bead; only the target purified

binding: binds
Molecule: Cdc42 (from UniProt Q8CFN2 1-191)

binding: binds
Molecule: Gabra1 (GABA receptor subunit alpha 1) (from UniProt P62813 28-455)

binding: binds
Molecule: Gabrb2 (from UniProt P63138 26-474) (receptor)

binding: binds
Molecule: Gabrb3 (from UniProt P63079 26-473) (receptor)

binding: binds
B1: Basp1 (protein, UniProt Q05175 1-220)
chain: MGSKLSKKKKGYNVNDEKAKDKDKKAEGAGTEEEGTQKESEPQAAADATEVKESAEEKPKDAADGEAKAEEKEADKAAAKEEAPKAEPEKSEGAAEEQPEPAPAPEQEAAAPGPAAGGEAPKAGEASAESTGAADGAPQEEGEAKKTEAPAAGPEAKSDAAPAASDSKPSTEPAPSSKETPAASEAPSSAAKAPAPAAPAAEPQAEAPVASSEQSVAVKE

binding: binds
B2: Marcks (protein, UniProt P30009 1-309)
chain: MGAQFSKTAAKGEAAAERPGEAAVASSPSKANGQENGHVKVNGDASPAAAEPGAKEELQANGSAPAADKEEPASGGAATPAAADKDEAAAAPEPGAATADKEAAEAEPAEPGSPSAETEGASASSTSSPKAEDGAAPSPSSETPKKKKKRFSFKKSFKLSGFSFKKSKKEAGEGAEAEGATADGAKDEAAAAAGGDAAAAPGEQAGGAGAEGAEGGESREAEAAEPEQPEQPEQPAAEEPRAEEPSEAVGEKAEEPAPGATADDAPSAAGPEQEAPAATDEPAASAAPSASPEPQPECSPEAPPAPVAE
